The values below come from the supplement of paper PMC12578635.

± gives the standard deviation of the averaged measurements. This is one part of the list. Repeats are few or missing, and single values can be far off.

The test system of the assay is RAW 264.7 macrophages infected with S. aureus JE2-lux. Description: host macrophage viability (CellTiter-Fluor) relative to DMSO vehicle; higher = more viable host cells. The note with it: 10 µM; treatment time 4 h; gentamicin 50 µg/ml.
In the case of `Cc1ccc(-c2c(C(F)(F)F)nn3c(N4CCN(c5ccccn5)CC4)cc(C)nc23)cc1`, the host macrophage viability worked out at 102%.

Regarding `NC(=O)c1ccsc1NC(=O)CCSc1ccc(F)cc1`, the host macrophage viability is 120%.

As to `CCOC(=O)c1cc(NC(=O)Nc2ccc(I)cc2)c(C)nc1C`, the host macrophage viability came out at 121%.

Consider `Cc1ccccc1-c1ncccc1C(=O)N1CCC(C(=O)NC2CCCCCC2)CC1`, for which the host macrophage viability came out at 104%.

On to `O=C(CCN1CCCCC1)Nc1c(-c2ccccc2)c2cc(Br)ccc2[nH]c1=O`, for which the host macrophage viability stood at 126%.

On to `O=C(Nc1ccccc1Cl)C1CCN(c2c3c(nc4ncnn24)CCC3)CC1`, for which the host macrophage viability was 88.4%.

Take `COc1ccccc1CNC(=O)C(=O)NCC1OCCN1C(=O)c1ccc2c(c1)OCO2` (stereo unspecified): the host macrophage viability was found to be 109%.

For `Cc1nc(-c2cccs2)c(CC(=O)Nc2ccc(Br)cc2)s1`, the host macrophage viability turned out to be 118%.

With `Cc1cccc2c(O)c(C(=O)N3CCC(C)CC3)cnc12`, the host macrophage viability was 114%.

On to `COc1cccc(CNC(=O)Cn2cnc3onc(-c4ccc(Cl)cc4)c3c2=O)c1OC`, for which the host macrophage viability is 139%.

On to `CC(NC(=O)CCCc1nnc2c(=O)n(-c3ccc(Cl)cc3)ccn12)c1ccccc1` (stereo unspecified), for which the host macrophage viability was 140%.

Turning to `CC(Sc1nc2ncccc2o1)C(=O)N1CCCc2ccccc21` (stereo unspecified), the host macrophage viability is 111%.

With `Cc1cc(C)cc(-n2ncc3c(N4CCN(c5ccc(F)cc5)CC4)ncnc32)c1`, the host macrophage viability was 101%.

For the molecule `Cc1cccc(-c2nc(NC(=O)C(C)Oc3ccccc3Cl)no2)c1` (stereo unspecified), the host macrophage viability was 105%.

For the molecule `CN(C)/C=N/c1c(C#N)cnn1-c1ncnc2sc(-c3ccccc3)cc12`, the host macrophage viability was determined as 134%.

For `CCc1nc2ccc(NC(=O)c3cc(-c4ccccn4)n[nH]3)cc2[nH]1`, the host macrophage viability is 112%.

On to `Cc1ccccc1-c1nc(NC(=O)COc2ccc(C(C)C)cc2)no1`, for which the host macrophage viability was determined as 106%.

On to `O=C(CSc1nc2c(oc3ccccc32)c(=O)n1CC1CCCO1)Nc1ccccc1F` (stereo unspecified), for which the host macrophage viability worked out at 121%.

On to `CCOc1ccccc1/C=N/NC(=O)CNC(=O)c1ccc(S(=O)(=O)N(CC)CC)cc1`, for which the host macrophage viability turned out to be 125%.

Regarding `O=C(Nc1ncc(S(=O)(=O)c2ccc([N+](=O)[O-])cc2)s1)c1cccc(F)c1`, the host macrophage viability came to 103%.

For the molecule `N#Cc1cc2cc3c(cc2nc1SCC(=O)N1CC(=O)Nc2ccccc21)OCO3`, the host macrophage viability amounted to 139%.

As for `CCCN1C(SCC(=O)Nc2ccccc2C(=O)OCC)=NS(=O)(=O)c2ccccc21`, the host macrophage viability worked out at 104%.

`Cc1cc(-c2csc(S(=O)(=O)N3CCOCC3)c2)on1`: the host macrophage viability was 119%.

Consider `Cc1cc(C)n(-c2cc(NCC(C)c3ccccc3)ncn2)n1` (stereo unspecified), for which the host macrophage viability stood at 121%.

Consider `O=C(CSc1nncc(=O)[nH]1)Nc1ccc2c(c1)OCO2`, for which the host macrophage viability was 110%.

`Cc1ccc(NC2SC(=O)N(CC(=O)O)C2=O)cc1` (stereo unspecified): the host macrophage viability is 120%.

Turning to `COc1ccc(C(NC(=O)c2nnn(-c3ccccc3)c2C)c2ccncc2)cc1` (stereo unspecified), the host macrophage viability was 101%.

On to `CCc1cc(-c2csc(S(=O)(=O)Nc3ccc(F)c(Cl)c3)c2)on1`, for which the host macrophage viability stood at 107%.

Regarding `O=C(CCC1CCCCC1)NCc1n[nH]c(=O)c2ccccc12`, the host macrophage viability worked out at 119%.

For `CC1CCCCN1Cc1nc2c([nH]1)c(=O)n(C)c(=O)n2C` (stereo unspecified), the host macrophage viability was 100%.

In the case of `C=CCOc1ccccc1/C=C1/SC(N2CCN(C)CC2)=NC1=O`, the host macrophage viability was 123%.

Regarding `O=C(NCc1ccc2c(c1)OCO2)C(=O)NCC(c1ccco1)N1CCN(c2ccccc2)CC1` (stereo unspecified), the host macrophage viability was determined as 111%.

On to `CC(=O)NC1(c2ccccc2F)CCN(Cc2cc3ccccc3nc2N(C)C)CC1`, for which the host macrophage viability was determined as 121%.

Regarding `O=C(Nc1cccc(NC(=O)c2ccccn2)c1)c1ccc2nccnc2c1`, the host macrophage viability was determined as 121%.

As to `N#CC1=C(N)OC2=C(C(=O)CCC2)C1c1ccco1` (stereo unspecified), the host macrophage viability amounted to 111%.

For the molecule `O=C(Nc1ccc2ncsc2c1)c1cc2ccccc2oc1=O`, the host macrophage viability amounted to 120%.

As to `Cc1nc2c(C(=O)NCc3cccnc3)cnn2c(O)c1Cc1ccc(F)cc1Cl`, the host macrophage viability came out at 115%.

`Cc1[nH]c2nc(N(Cc3ccc(Cl)cc3)C(=O)CCc3ccccc3)nn2c(=O)c1C`: the host macrophage viability came out at 116%.

As for `Cc1ccc(Cc2nnc(-c3cc(NC(=O)Nc4ccc5c(c4)OCCO5)ccc3F)o2)cc1`, the host macrophage viability was 111%.

For the molecule `O=C(N1CCC(n2nc(C3CC3)ccc2=O)CC1)C1(c2ccccc2)CC1`, the host macrophage viability is 101%.

For `CC[C@@H](Cn1nc(-c2ccc(F)c(F)c2)ccc1=O)NC(=O)Cc1ccccc1F`, the host macrophage viability came out at 128%.

As for `Cc1nc2cc(-c3noc(CNS(=O)(=O)c4ccccc4)n3)ccc2n(C2CCCC2)c1=O`, the host macrophage viability amounted to 118%.

Consider `CCN1CCC(CCc2ccc(NC(=O)c3cccc4c3C(=O)N(C)C4)cc2)C(C)C1` (stereo unspecified), for which the host macrophage viability worked out at 101%.

As for `CC1=NN(Cc2ccc(C)cc2)c2nc3c(c(=O)n(C)c(=O)n3C)n2C1`, the host macrophage viability is 110%.

For `COc1ccc(CCNC(=O)C2CCCN2C(=O)Nc2ccc(F)cc2)cc1OC` (stereo unspecified), the host macrophage viability came out at 125%.

In the case of `Cc1nc(N2CCN(C(=O)c3ccco3)CC2)c2nnn(Cc3ccccc3)c2n1`, the host macrophage viability is 98.8%.

In the case of `COc1cc(Nc2ncc3c(n2)CCN(S(=O)(=O)c2cccc4nsnc24)C3)cc(OC)c1`, the host macrophage viability came to 122%.

Turning to `Cc1cc(NC(=O)c2c3c(nc4ccccc24)C(=O)N(C2CCCCC2)C3)no1`, the host macrophage viability stood at 130%.

`O=C1NC(c2ccc(Cl)cc2)c2c1oc1ccccc1c2=O` (stereo unspecified): the host macrophage viability is 135%.

Consider `CC(=O)Cc1nsc(NC(=O)c2ccoc2COc2ccc(C)cc2)n1`, for which the host macrophage viability was 133%.

For the molecule `C=CCn1c(=O)c2c3c(sc2n2c(Nc4ccccc4)nnc12)CCCC3`, the host macrophage viability was 118%.

With `COc1cccc2cc(C(=O)NCc3ccc4c(c3)OCO4)c(=O)oc12`, the host macrophage viability was 108%.

On to `CC(=O)Nc1ccc2nc(NC(=O)C(C)NS(=O)(=O)c3ccc(C)cc3)sc2c1` (stereo unspecified), for which the host macrophage viability was 108%.

In the case of `CCOc1ccccc1-c1cc(C(=O)Nc2ccc3c(c2)nc(CC)n3C)[nH]n1`, the host macrophage viability worked out at 116%.

On to `Cc1oc(-c2ccno2)cc1S(=O)(=O)N1c2ccccc2CC1C` (stereo unspecified), for which the host macrophage viability was 99.7%.

Consider `O=C(CCn1c(=S)[nH]c2ccccc2c1=O)N1CCOCC1`, for which the host macrophage viability turned out to be 131%.

On to `Cc1ccc(-n2ccnc(NCCC(C)C)c2=O)cc1Cl`, for which the host macrophage viability was 130%.

On to `CCOc1ccc(NC(=O)Cn2nnc(C(=O)Nc3ccccc3F)c2N)cc1`, for which the host macrophage viability turned out to be 107%.

With `COc1cccc(NC(=S)Nc2c(C)n(C)n(-c3ccccc3)c2=O)c1`, the host macrophage viability was 117%.

`Nn1c(SCc2ccccc2)nnc1-c1ccco1`: the host macrophage viability came out at 104%.

`COc1ccc([N+](=O)[O-])cc1NC(=O)CCS(=O)(=O)c1ccc(F)cc1`: the host macrophage viability was 114%.

As for `O=C1C=C(Nc2ccc(Cl)cc2)C(=O)N1c1cccc(C(F)(F)F)c1`, the host macrophage viability amounted to 130%.

On to `Cc1ccc(-n2ccnc2SCc2nc(-c3ccc(Cl)cc3)no2)cc1`, for which the host macrophage viability was determined as 67.7%.

In the case of `COc1cccc2sc(NC(=O)c3coc4ccccc4c3=O)nc12`, the host macrophage viability turned out to be 102 ± 7.6%.

For `O=C(CCCS(=O)(=O)c1ccccc1)Nc1nc2ccc([N+](=O)[O-])cc2s1`, the host macrophage viability was determined as 117%.

As to `Cc1ccc2cc3c(nc2c1)sc1c(SCC(=O)NCc2ccccc2)ncnc13`, the host macrophage viability is 129%.
